Measurements published in PubChem BioAssay AID248 (DTP/NCI, 2004).
The list is a part of this screen's results and no random one: it gathers tests that were run many times, whatever their T/C, doses with no T/C, and many T/C values between a quarter and a half above the control. Other doses and runs of a compound stand elsewhere. T/C is the treated group as % of the vehicle group. Some doses have a count of surviving animals in place of a T/C: the source holds a T/C of zero for them, seemingly a mark for toxic or unscored doses. Some doses without a T/C left all or most animals alive at the check, yet need not have been tolerated: the source hardly ever lists a survival T/C far under the control, and the zero likely stands for such cases as well. Survivors were counted at the toxicity check, usually on the fifth day, unless a day is given; later deaths do not show. Schedule codes are those of the source, read here as Q, the interval in days (D) or hours (H), X, the number of doses. Some schedules carry Z or #; the key to these is not given. Where survival is the endpoint, this PubChem deposit counts one and a half times the control or more as active, and values a quarter to a half above the control carry no call in these data; other NCI protocols may use other cut-offs. Some doses were run more than once; the values are given in rising order. Counts like (3×) stand for listed records that agree. Some T/C values carry the count of animals alive at the toxicity check (mostly the fifth day); where none is given, no animal had died by that day.

System: L1210 leukemia ip in BDF1 mice, survival T/C
Test: NCI In Vivo Anticancer Drug Screen. Data for tumor model L1210 Leukemia (intraperitoneal) in B6D2F1 (BDF1) mice
Conditions: T/C endpoint: mean survival time, higher T/C = longer survival
[1] = dose: 400.0 mg/kg/injection, schedule: Q01DX009 (ip), vehicle: saline with Tween-80

O=[N+]([O-])c1ccc(N/N=C2\C3CC(c4ccccc4)C2C(c2ccccc2)=C3c2ccccc2)c([N+](=O)[O-])c1 (stereo not given)
survivor count (dose: 50.0 mg/kg/injection, schedule: Q01DX009 (ip), vehicle: saline with Tween-80): 3 of 3 | survivor count (dose: 100.0 mg/kg/injection, schedule: Q01DX009 (ip), vehicle: saline with Tween-80): 3 of 3

CN=C(N)C(C)SS(=O)(=O)O (stereo not given)
survivor count (dose: 100.0 mg/kg/injection, schedule: Q04DX002 (ip), vehicle: Klucel (hydroxypropylcellulose) (HPC)): 3 of 3 | survivor count (dose: 400.0 mg/kg/injection, schedule: Q04DX002 (ip), vehicle: Klucel (hydroxypropylcellulose) (HPC)): 0 of 3

O=C(Nc1ccc(NC2=NCCN2)cc1)c1cc(Cl)cc(C(=O)Nc2ccc(NC3=NCCN3)cc2)c1
survivor count (dose: 60.0 mg/kg/injection, schedule: Q01DX Z (ip), vehicle: saline): 1 of 6 | survivor count (dose: 120.0 mg/kg/injection, schedule: Q01DX Z (ip), vehicle: saline): 0 of 6

CC(=O)OCC(=O)[C@@]1(O)CC[C@H]2[C@@H]3CCC4=CC(=O)CC[C@]4(C)[C@H]3[C@@H](O)C[C@@]21C
T/C (dose: 14.0 mg/kg/injection, schedule: Q02DX010 (sc), vehicle: steroid suspending solution): 93, 97, 98, 102, 106 % of control | T/C (dose: 22.0 mg/kg/injection, schedule: Q02DX010 (sc), vehicle: steroid suspending solution): 95, 96, 101, 102, 104 % of control | T/C (dose: 33.0 mg/kg/injection, schedule: Q02DX010 (sc), vehicle: steroid suspending solution): 98, 99, 101, 104, 105 % of control | T/C (dose: 50.0 mg/kg/injection, schedule: Q02DX010 (sc), vehicle: steroid suspending solution): 96, 97, 98, 102, 118 % of control | T/C (dose: 75.0 mg/kg/injection, schedule: Q02DX010 (sc), vehicle: steroid suspending solution): 95, 98, 102, 106, 109 % of control | T/C (dose: 112.0 mg/kg/injection, schedule: Q02DX010 (sc), vehicle: steroid suspending solution): 96 (2×), 99, 104 % of control (2×)

Clc1ccc(C2c3ccccc3C[n+]3ccccc32)cc1 (stereo not given)
survivor count (dose: 55.0 mg/kg/injection, schedule: Q01DX009 (ip), vehicle: Klucel (hydroxypropylcellulose) (HPC)): 0 of 6 | survivor count (dose: 80.0 mg/kg/injection, schedule: Q01DX009 (ip), vehicle: Klucel (hydroxypropylcellulose) (HPC)): 0 of 6 | survivor count (dose: 100.0 mg/kg/injection, schedule: Q04DX003 (ip), vehicle: Klucel (hydroxypropylcellulose) (HPC)): 0 of 6 | survivor count (dose: 200.0 mg/kg/injection, schedule: Q04DX003 (ip), vehicle: Klucel (hydroxypropylcellulose) (HPC)): 0 of 6 | survivor count (dose: 400.0 mg/kg/injection, schedule: Q04DX003 (ip), vehicle: Klucel (hydroxypropylcellulose) (HPC)): 0 of 6

COc1ccc(O)c(C=O)c1
T/C (dose: 200.0 mg/kg/injection, schedule: Q01DX009 (ip), vehicle: saline with Tween-80): 125 % of control [4 of 6 alive] | survivor count [1]: 2 of 6

CC1C[N+](C)=C2CCCCC2=C1N (stereo not given)
survivor count (dose: 100.0 mg/kg/injection, schedule: Q04DX003 (ip), vehicle: saline): 0 of 6 | survivor count (dose: 200.0 mg/kg/injection, schedule: Q04DX003 (ip), vehicle: saline): 0 of 6 | survivor count (dose: 400.0 mg/kg/injection, schedule: Q04DX003 (ip), vehicle: saline): 0 of 6

O/N=C\c1ccccc1
survivor count (dose: 200.0 mg/kg/injection, schedule: Q01DX009 (ip), vehicle: Klucel (hydroxypropylcellulose) (HPC)): 6 of 6

C[CH2][Pb]([CH2]C)([CH2]C)[O]C(C)=O
survivor count (dose: 5.0 mg/kg/injection, schedule: Q01DX009 (ip), vehicle: Klucel (hydroxypropylcellulose) (HPC)): 5 of 6 | survivor count (dose: 10.0 mg/kg/injection, schedule: Q01DX009 (ip), vehicle: Klucel (hydroxypropylcellulose) (HPC)): 0 of 6 | survivor count (dose: 20.0 mg/kg/injection, schedule: Q01DX001 (ip), vehicle: carboxymethylcellulose (CMC)): 0 of 4 | survivor count (dose: 20.0 mg/kg/injection, schedule: Q04DX003 (ip), vehicle: Klucel (hydroxypropylcellulose) (HPC)): 0 of 6 | survivor count (dose: 40.0 mg/kg/injection, schedule: Q01DX001 (ip), vehicle: carboxymethylcellulose (CMC)): 0 of 4 | survivor count (dose: 50.0 mg/kg/injection, schedule: Q01DX001 (ip), vehicle: carboxymethylcellulose (CMC)): 0 of 4 | survivor count (dose: 80.0 mg/kg/injection, schedule: Q01DX001 (ip), vehicle: carboxymethylcellulose (CMC)): 0 of 4 | survivor count (dose: 100.0 mg/kg/injection, schedule: Q01DX001 (ip), vehicle: carboxymethylcellulose (CMC)): 0 of 4 | survivor count (dose: 200.0 mg/kg/injection, schedule: Q01DX001 (ip), vehicle: carboxymethylcellulose (CMC)): 0 of 4 | survivor count (dose: 400.0 mg/kg/injection, schedule: Q01DX001 (ip), vehicle: carboxymethylcellulose (CMC)): 0 of 4

Cc1cccc(C)c1N(COC(C)C)C(=O)CCl
survivor count [1]: 3 of 6

COc1ccc(CC[n+]2cccc(C#N)c2)cc1OC
survivor count (dose: 300.0 mg/kg/injection, schedule: Q01DX001 (ip), vehicle: carboxymethylcellulose (CMC)): 3 of 6
